Results taken from PMC10810786.

What was measured:
[1] = biological target: recombinant TbEIF4E6-H51A mutant (GST tag removed) (Trypanosoma brucei); assay: nanoDSF (thermal unfolding); purified protein and purified complex in 20 mM Tris-HCl, 150 mM NaCl, 2 mM DTT, pH 8.0; linear ramp from 20 to 80 °C; with and without cap-4; both purified
[2] = biological target: recombinant TbEIF4E6-H51A mutant (GST tag removed) (Trypanosoma brucei); assay: SEC; TbEIF4E6-H51A after removal of GST incubated with the purified 4G5 peptide (molar ratio 1/1.1); complex purified on Superdex 75 16/600 in 20 mM Tris-HCl, 150 mM NaCl, 2 mM DTT, pH 8.0; both purified

B1: TbEIF4G5_79-116 peptide (peptide)
peptide: SSYPEDCVYEIAEFTRLQNTKCLPPKGILQFATDLWKE
binding [1]: binds | binding [2]: binds

These are yes or no findings as the source states them, for the method shown. A result given as binding can be weak or reduced; the word gives no strength.
